Measurements as given in patent publication US11246857B2, “Anti-fungal inhibitors” (THE JOHNS HOPKINS UNIVERSITY, priority 2017, dated 2022).
Which two values form the index is not stated here.

Tested on: human fibroblast
Assay: Toxicity against human fibroblast
Format: cell-based
Details: therapeutic index calculated from toxicity against human fibroblast and MIC
Excerpt: XlogP values are derived from PubChem and describe the lipophilicity of the molecule. The topological polar surface area (tPSA) is a metric for predicting cell penetration, with values <140 to be favorable. […] Toxicity against human fibroblast was used to calculate the therapeutic index TI.

Compound `Nc1ccc(-c2nc3ccc(Cc4ccc5nc(C6CCC(N)CC6)[nH]c5c4)cc3[nH]2)cc1` (stereo not shown) [DM262] has a TI of 16.4.
